Source: PubChem BioAssay AID1053208 (Peter MacCallum Cancer Centre, 2014)

- Purpose: 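Genes whose silencing cuts survival of bone tumour cells only with doxorubicin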 (primary screen)
- System: mouse osteosarcoma cells, early-passage culture from an engineered mouse model of fibroblastic bone tumour
- Reagent: siRNA pool against mouse genes, 40 nM
- Timing: about 120 h (48 h before drug, then 72 h with drug)
- Treatment: doxorubicin 100 nM for 72 h, roughly 30-40% inhibitory dose
- Measured: 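Viability read as ATP luminescence after 72 h of 100 nM doxorubicin or none, duplicate wells averaged, scaled to non-targeting siRNA, then expressed as robust z-scores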
- Direction: viability z-score with doxorubicin and doxorubicin viability vs non-targeting: higher = more viable cells under doxorubicin; viability z-score without drug: higher = more viable cells with knock-down alone; z-score of drug to no-drug ratio: higher = less drug sensitisation by knock-down
- Active means: 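a pool counts as active when its viability z-score with doxorubicin is -2 or below and its z-score without drug lies between -2 and 2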
Here is an unselected part of about 17,000 deposited reagents. In the full data, 788 (4.7%) are marked active. 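Calls rest on z-score classes alone; an extra cut-off of viability at most 70% of control was not applied to them.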 No sequences are given here.

The opening 6 entries, to show the layout:
gene knocked down	combined z-score class	viability z-score with doxorubicin	viability z-score without drug	z-score of drug to no-drug ratio	doxorubicin viability vs non-targeting	Call
Hpse (heparanase)	no change with or without drug	0.45	1.35	-0.34	0.98	inactive
Snap47 (synaptosomal-associated protein, 47)	no change with or without drug	-1.57	-0.34	-1.35	0.8	inactive
Ifi35 (interferon-induced protein 35)	low cell count without drug only	-1.8	-3.54	0.79	0.78	inactive
Tada2a (transcriptional adaptor 2A)	no change with or without drug	0.67	0.17	0.67	1	inactive
Ucp2	no change with or without drug	1.57	0	1.8	1.08	inactive
Zfp868 (zinc finger protein 868)	no change with or without drug	0.67	-0.51	1.24	1	inactive

The list itself, repeating the preview:
gene knocked down	combined z-score class	viability z-score with doxorubicin	viability z-score without drug	z-score of drug to no-drug ratio	doxorubicin viability vs non-targeting	Call
Hpse (heparanase)	no change with or without drug	0.45	1.35	-0.34	0.98	inactive
Snap47 (synaptosomal-associated protein, 47)	no change with or without drug	-1.57	-0.34	-1.35	0.8	inactive
Ifi35 (interferon-induced protein 35)	low cell count without drug only	-1.8	-3.54	0.79	0.78	inactive
Tada2a (transcriptional adaptor 2A)	no change with or without drug	0.67	0.17	0.67	1	inactive
Ucp2	no change with or without drug	1.57	0	1.8	1.08	inactive
Zfp868 (zinc finger protein 868)	no change with or without drug	0.67	-0.51	1.24	1	inactive
Cd59a (CD59a antigen)	no change with or without drug	-0.9	-0.17	-0.79	0.86	inactive
Dap3 (death associated protein 3)	no change with or without drug	0	-1.01	0.9	0.94	inactive
Itgae (integrin alpha E, epithelial-associated)	no change with or without drug	-0.22	-0.34	0.11	0.92	inactive
Cryga (crystallin, gamma A)	no change with or without drug	-0.22	0.51	-0.45	0.92	inactive
Stk11 (serine/threonine kinase 11)	no change with or without drug	0	-0.17	0.22	0.94	inactive
Or2at1 (olfactory receptor family 2 subfamily AT member 1)	no change with or without drug	0.22	0.51	0	0.96	inactive
Acot11 (acyl-CoA thioesterase 11)	no change with or without drug	-0.67	-0.51	-0.22	0.88	inactive
Thyn1 (thymocyte nuclear protein 1)	no change with or without drug	-1.35	0.34	-1.46	0.82	inactive
Irx6 (Iroquois homeobox 6)	no change with or without drug	-0.67	-0.84	0	0.88	inactive
Mtpap (mitochondrial poly(A) polymerase)	no change with or without drug	-0.11	0.67	-0.45	0.93	inactive
Lrrtm1 (leucine rich repeat transmembrane neuronal 1)	no change with or without drug	-0.11	-0.34	0.22	0.93	inactive
Mrc2 (mannose receptor, C type 2)	no change with or without drug	-0.22	-0.84	0.45	0.92	inactive
Zfp316 (zinc finger protein 316)	high cell count without drug only	1.24	2.19	-0.11	1.05	inactive
Alcam (activated leukocyte cell adhesion molecule)	no change with or without drug	-1.01	-0.67	-0.56	0.85	inactive
Telo2 (telomere maintenance 2)	no change with or without drug	-0.9	0.51	-1.12	0.86	inactive
Clmb (calcimembrin)	no change with or without drug	-1.01	1.18	-1.69	0.85	inactive
Cav3 (caveolin 3)	no change with or without drug	-0.79	-0.84	-0.11	0.87	inactive
Tssk5 (testis-specific serine kinase 5)	no change with or without drug	0.45	0.51	0.22	0.98	inactive
Setx (senataxin)	no change with or without drug	0.67	-0.84	1.46	1	inactive
Rbm42 (RNA binding motif protein 42)	no change with or without drug	-0.22	-0.84	0.45	0.92	inactive
Nek7 (NIMA (never in mitosis gene a)-related expressed kinase 7)	no change with or without drug	0	0.34	-0.11	0.94	inactive
Xpot (exportin, tRNA (nuclear export receptor for tRNAs))	no change with or without drug	-0.67	1.18	-1.35	0.88	inactive
Or4f4b (olfactory receptor family 4 subfamily F member 4B)	no change with or without drug	-1.91	-0.51	-1.57	0.77	inactive
1110059G10Rik (RIKEN cDNA 1110059G10 gene)	no change with or without drug	1.57	1.52	0.67	1.08	inactive
Nkx1-2 (NK1 homeobox 2)	no change with or without drug	-0.34	-1.69	1.01	0.91	inactive
Hbs1l (Hbs1-like (S. cerevisiae))	no change with or without drug	-0.22	1.52	-1.12	0.92	inactive
Clec14a (C-type lectin domain family 14, member a)	low cell count with doxorubicin only	-2.02	0.17	-2.14	0.76	active
Hivep3	high cell count without drug only	1.69	2.19	0.34	1.09	inactive
Mall (mal, T cell differentiation protein-like)	no change with or without drug	0	-0.51	0.45	0.94	inactive
Aurkaip1 (aurora kinase A interacting protein 1)	low cell count without drug only	0.22	-2.02	2.02	0.96	inactive
Bpifb3 (BPI fold containing family B, member 3)	no change with or without drug	-0.79	-0.34	-0.45	0.87	inactive
Rab26 (RAB26, member RAS oncogene family)	no change with or without drug	-0.79	0.51	-1.01	0.87	inactive
Slitrk3 (SLIT and NTRK-like family, member 3)	no change with or without drug	0.67	-0.51	1.24	1	inactive
Ca3 (carbonic anhydrase 3)	low cell count with doxorubicin only	-2.14	-1.85	-1.01	0.75	active
Cr1l (complement C3b/C4b receptor 1 like)	no change with or without drug	0.45	0.67	0.11	0.98	inactive
Gria1 (glutamate receptor, ionotropic, AMPA1 (alpha 1))	no change with or without drug	-0.11	-1.18	0.9	0.93	inactive
Aldh3a1 (aldehyde dehydrogenase family 3, subfamily A1)	no change with or without drug	0	-0.84	0.67	0.94	inactive
Pde6c (phosphodiesterase 6C, cGMP specific, cone, alpha prime)	no change with or without drug	0.67	-0.51	1.24	1	inactive
Atp8a1 (ATPase phospholipid transporting 8A1)	low cell count with doxorubicin only	-2.02	1.01	-2.59	0.76	active
Prdm1 (PR domain containing 1, with ZNF domain)	no change with or without drug	0.9	1.35	0.11	1.02	inactive
Fga (fibrinogen alpha chain)	no change with or without drug	-0.56	1.52	-1.35	0.89	inactive
Reg3b (regenerating islet-derived 3 beta)	no change with or without drug	0.9	-0.17	1.24	1.02	inactive
Dcun1d5 (defective in cullin neddylation 1 domain containing 5)	no change with or without drug	0.34	0.51	0.11	0.97	inactive
Ddi2 (DNA-damage inducible protein 2)	no change with or without drug	-0.34	1.52	-1.12	0.91	inactive
